{"source": "PubChem BioAssay AID1159584 (Peter MacCallum Cancer Centre, 2016)", "purpose": "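Knock-downs that harm CDH1-null cells more than parental MCF10A cells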 (primary screen)", "cells": "human MCF10A breast epithelial cells, parental and CDH1-null", "reagents": "siRNA against human genes", "detection": "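Cell viability by CellTiter-Glo ATP luminescence, each line scaled to the mean of mock wells across plates, then CDH1-null over parental ratio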", "scale": "CDH1-null / parental viability ratio: higher = CDH1-null cells survive relatively better than parental", "note": "Here is one part, drawn at random, of about 18,000 reagents tested. The numbers tell different reagents against one gene apart. Not all columns of the deposit are shown. Not stated in the record: the amount of reagent, the time to read-out."}
{"target gene": "PKDCC", "siRNA no.": 1, "CDH1-null / parental viability ratio": 0.99}
{"target gene": "TCAF1", "siRNA no.": 1, "CDH1-null / parental viability ratio": 0.68}
{"target gene": "RAB40C", "siRNA no.": 1, "CDH1-null / parental viability ratio": 1.1}
{"target gene": "OR8S1", "siRNA no.": 1, "CDH1-null / parental viability ratio": 0.82}
{"target gene": "PPP3R2", "siRNA no.": 1, "CDH1-null / parental viability ratio": 1.14}
{"target gene": "CC2D2A", "siRNA no.": 1, "CDH1-null / parental viability ratio": 1.19}
{"target gene": "OLFM4", "siRNA no.": 1, "CDH1-null / parental viability ratio": 1.02}
{"target gene": "GAGE2E", "siRNA no.": 1, "CDH1-null / parental viability ratio": 0.93}
{"target gene": "TP53TG5", "siRNA no.": 1, "CDH1-null / parental viability ratio": 0.98}
{"target gene": "NABP1", "siRNA no.": 1, "CDH1-null / parental viability ratio": 0.81}
{"target gene": "HGD", "siRNA no.": 1, "CDH1-null / parental viability ratio": 0.95}
{"target gene": "TRA2B", "siRNA no.": 1, "CDH1-null / parental viability ratio": 1.44}
{"target gene": "DUSP23", "siRNA no.": 1, "CDH1-null / parental viability ratio": 1.32}
{"target gene": "ZBTB22", "siRNA no.": 1, "CDH1-null / parental viability ratio": 1.02}
{"target gene": "GABRA6", "siRNA no.": 1, "CDH1-null / parental viability ratio": 1.31}
{"target gene": "PLP2", "siRNA no.": 1, "CDH1-null / parental viability ratio": 0.92}
{"target gene": "ATP23", "siRNA no.": 1, "CDH1-null / parental viability ratio": 0.73}
{"target gene": "KPRP", "siRNA no.": 1, "CDH1-null / parental viability ratio": 1.14}
{"target gene": "RAB21", "siRNA no.": 1, "CDH1-null / parental viability ratio": 0.91}
{"target gene": "RGR", "siRNA no.": 1, "CDH1-null / parental viability ratio": 0.74}
{"target gene": "HEXIM1", "siRNA no.": 1, "CDH1-null / parental viability ratio": 0.92}
{"target gene": "FARP1", "siRNA no.": 1, "CDH1-null / parental viability ratio": 1.85}
{"target gene": "PLEKHH3", "siRNA no.": 1, "CDH1-null / parental viability ratio": 1.04}
{"target gene": "OR1N1", "siRNA no.": 1, "CDH1-null / parental viability ratio": 1.04}
{"target gene": "NTPCR", "siRNA no.": 1, "CDH1-null / parental viability ratio": 1.04}
{"target gene": "FAM50A", "siRNA no.": 1, "CDH1-null / parental viability ratio": 1}
{"target gene": "ARFGAP3", "siRNA no.": 1, "CDH1-null / parental viability ratio": 0.94}
{"target gene": "PASK", "siRNA no.": 1, "CDH1-null / parental viability ratio": 0.75}
{"target gene": "PPP2R2D", "siRNA no.": 1, "CDH1-null / parental viability ratio": 1.17}
{"target gene": "PJA1", "siRNA no.": 1, "CDH1-null / parental viability ratio": 1.06}
{"target gene": "ACTR6", "siRNA no.": 1, "CDH1-null / parental viability ratio": 0.89}
{"target gene": "LCOR", "siRNA no.": 1, "CDH1-null / parental viability ratio": 0.97}
{"target gene": "LCOR", "siRNA no.": 2, "CDH1-null / parental viability ratio": 0.93}
{"target gene": "LHX5", "siRNA no.": 1, "CDH1-null / parental viability ratio": 0.98}
{"target gene": "PNPLA2", "siRNA no.": 1, "CDH1-null / parental viability ratio": 1.24}
{"target gene": "RXRG", "siRNA no.": 1, "CDH1-null / parental viability ratio": 1.08}
{"target gene": "SMARCD3", "siRNA no.": 1, "CDH1-null / parental viability ratio": 1.04}
{"target gene": "OSBP2", "siRNA no.": 1, "CDH1-null / parental viability ratio": 0.8}
{"target gene": "CDK19", "siRNA no.": 1, "CDH1-null / parental viability ratio": 0.94}
{"target gene": "GCNT2", "siRNA no.": 1, "CDH1-null / parental viability ratio": 0.92}
{"target gene": "GNAT2", "siRNA no.": 1, "CDH1-null / parental viability ratio": 1.8}
{"target gene": "SHROOM3", "siRNA no.": 1, "CDH1-null / parental viability ratio": 0.97}
{"target gene": "STAG3L3", "siRNA no.": 1, "CDH1-null / parental viability ratio": 1.19}
{"target gene": "FAIM", "siRNA no.": 1, "CDH1-null / parental viability ratio": 1.15}
{"target gene": "ARMC6", "siRNA no.": 1, "CDH1-null / parental viability ratio": 1.41}

Already shown: 5 of the entries above.
{"target gene": "ATP23", "siRNA no.": 1, "CDH1-null / parental viability ratio": 0.73}
{"target gene": "KPRP", "siRNA no.": 1, "CDH1-null / parental viability ratio": 1.14}
{"target gene": "RAB21", "siRNA no.": 1, "CDH1-null / parental viability ratio": 0.91}
{"target gene": "RGR", "siRNA no.": 1, "CDH1-null / parental viability ratio": 0.74}
{"target gene": "HEXIM1", "siRNA no.": 1, "CDH1-null / parental viability ratio": 0.92}
